The supplement of paper PMC10849652
The list shows a part of the results.

By UniProt entry, the sequences of proteins in these tests, tags left out. Where a name states a change or a piece, a line headed by the entry shows the natural chain unless it says otherwise.
UniProt Q9UKV5, whole entry, looked up: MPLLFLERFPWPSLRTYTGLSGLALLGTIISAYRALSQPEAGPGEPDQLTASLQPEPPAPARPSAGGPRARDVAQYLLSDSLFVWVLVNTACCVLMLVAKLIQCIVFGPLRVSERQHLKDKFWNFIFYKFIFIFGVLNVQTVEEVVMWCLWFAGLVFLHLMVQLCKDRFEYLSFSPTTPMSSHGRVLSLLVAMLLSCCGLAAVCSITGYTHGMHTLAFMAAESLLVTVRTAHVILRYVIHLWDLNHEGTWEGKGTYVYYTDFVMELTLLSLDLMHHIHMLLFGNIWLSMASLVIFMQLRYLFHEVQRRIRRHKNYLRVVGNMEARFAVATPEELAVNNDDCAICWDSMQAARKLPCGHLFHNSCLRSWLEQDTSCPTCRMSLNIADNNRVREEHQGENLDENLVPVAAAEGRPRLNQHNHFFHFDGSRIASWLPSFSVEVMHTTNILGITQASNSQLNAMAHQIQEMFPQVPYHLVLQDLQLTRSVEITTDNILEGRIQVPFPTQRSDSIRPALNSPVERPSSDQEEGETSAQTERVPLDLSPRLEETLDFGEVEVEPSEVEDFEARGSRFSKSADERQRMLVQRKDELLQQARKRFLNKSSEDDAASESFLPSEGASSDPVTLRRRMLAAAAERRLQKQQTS
UniProt Q86SJ2: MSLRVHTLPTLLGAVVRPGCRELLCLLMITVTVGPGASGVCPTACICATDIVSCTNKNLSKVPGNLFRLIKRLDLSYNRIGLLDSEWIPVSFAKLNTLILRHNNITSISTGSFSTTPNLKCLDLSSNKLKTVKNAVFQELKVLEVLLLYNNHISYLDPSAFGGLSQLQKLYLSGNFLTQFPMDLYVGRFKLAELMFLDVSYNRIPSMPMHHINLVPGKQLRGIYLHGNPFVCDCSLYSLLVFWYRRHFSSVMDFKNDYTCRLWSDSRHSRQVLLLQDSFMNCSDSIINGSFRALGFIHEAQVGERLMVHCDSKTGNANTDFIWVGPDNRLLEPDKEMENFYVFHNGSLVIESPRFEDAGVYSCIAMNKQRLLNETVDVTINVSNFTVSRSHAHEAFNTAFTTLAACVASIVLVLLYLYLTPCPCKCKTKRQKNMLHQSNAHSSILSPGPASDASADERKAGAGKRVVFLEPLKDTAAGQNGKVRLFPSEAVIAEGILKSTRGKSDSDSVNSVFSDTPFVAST
UniProt Q2TAA5: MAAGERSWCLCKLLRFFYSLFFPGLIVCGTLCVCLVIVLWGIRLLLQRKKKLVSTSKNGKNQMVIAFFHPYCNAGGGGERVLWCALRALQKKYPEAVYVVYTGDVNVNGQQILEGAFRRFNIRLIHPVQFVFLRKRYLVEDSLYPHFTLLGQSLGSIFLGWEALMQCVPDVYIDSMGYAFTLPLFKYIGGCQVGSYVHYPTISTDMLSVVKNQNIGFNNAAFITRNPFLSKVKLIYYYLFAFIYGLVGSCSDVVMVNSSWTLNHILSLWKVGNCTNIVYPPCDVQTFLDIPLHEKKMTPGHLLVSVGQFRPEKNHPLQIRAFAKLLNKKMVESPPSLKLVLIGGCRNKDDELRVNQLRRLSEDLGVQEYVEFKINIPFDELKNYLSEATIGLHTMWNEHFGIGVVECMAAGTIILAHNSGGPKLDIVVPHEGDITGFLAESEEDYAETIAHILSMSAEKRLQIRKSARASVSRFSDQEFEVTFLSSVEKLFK
UniProt Q10567: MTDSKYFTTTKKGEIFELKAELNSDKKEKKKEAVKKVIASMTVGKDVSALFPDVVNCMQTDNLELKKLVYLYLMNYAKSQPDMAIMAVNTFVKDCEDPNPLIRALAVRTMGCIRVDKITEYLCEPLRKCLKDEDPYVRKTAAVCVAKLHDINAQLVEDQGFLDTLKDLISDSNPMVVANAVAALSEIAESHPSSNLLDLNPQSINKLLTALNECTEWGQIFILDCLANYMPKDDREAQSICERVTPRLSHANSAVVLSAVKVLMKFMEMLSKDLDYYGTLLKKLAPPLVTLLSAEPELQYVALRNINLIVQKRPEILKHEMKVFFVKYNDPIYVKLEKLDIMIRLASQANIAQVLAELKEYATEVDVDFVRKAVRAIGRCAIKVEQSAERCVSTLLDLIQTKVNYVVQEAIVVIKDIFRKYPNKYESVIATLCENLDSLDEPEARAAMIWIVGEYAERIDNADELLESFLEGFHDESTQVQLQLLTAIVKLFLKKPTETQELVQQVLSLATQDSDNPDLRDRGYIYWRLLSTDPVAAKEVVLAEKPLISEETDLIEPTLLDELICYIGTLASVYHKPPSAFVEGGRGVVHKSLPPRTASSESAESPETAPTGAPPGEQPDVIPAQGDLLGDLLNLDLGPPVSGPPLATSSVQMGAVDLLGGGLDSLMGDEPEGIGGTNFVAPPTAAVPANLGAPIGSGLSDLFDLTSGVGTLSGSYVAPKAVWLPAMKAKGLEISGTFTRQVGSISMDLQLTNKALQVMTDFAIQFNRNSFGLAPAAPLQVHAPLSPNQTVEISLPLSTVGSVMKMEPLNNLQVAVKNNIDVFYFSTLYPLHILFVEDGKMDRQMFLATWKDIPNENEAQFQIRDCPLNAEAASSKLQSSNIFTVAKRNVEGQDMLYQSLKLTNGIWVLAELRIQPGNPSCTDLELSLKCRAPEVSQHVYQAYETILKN
UniProt A1A5B4: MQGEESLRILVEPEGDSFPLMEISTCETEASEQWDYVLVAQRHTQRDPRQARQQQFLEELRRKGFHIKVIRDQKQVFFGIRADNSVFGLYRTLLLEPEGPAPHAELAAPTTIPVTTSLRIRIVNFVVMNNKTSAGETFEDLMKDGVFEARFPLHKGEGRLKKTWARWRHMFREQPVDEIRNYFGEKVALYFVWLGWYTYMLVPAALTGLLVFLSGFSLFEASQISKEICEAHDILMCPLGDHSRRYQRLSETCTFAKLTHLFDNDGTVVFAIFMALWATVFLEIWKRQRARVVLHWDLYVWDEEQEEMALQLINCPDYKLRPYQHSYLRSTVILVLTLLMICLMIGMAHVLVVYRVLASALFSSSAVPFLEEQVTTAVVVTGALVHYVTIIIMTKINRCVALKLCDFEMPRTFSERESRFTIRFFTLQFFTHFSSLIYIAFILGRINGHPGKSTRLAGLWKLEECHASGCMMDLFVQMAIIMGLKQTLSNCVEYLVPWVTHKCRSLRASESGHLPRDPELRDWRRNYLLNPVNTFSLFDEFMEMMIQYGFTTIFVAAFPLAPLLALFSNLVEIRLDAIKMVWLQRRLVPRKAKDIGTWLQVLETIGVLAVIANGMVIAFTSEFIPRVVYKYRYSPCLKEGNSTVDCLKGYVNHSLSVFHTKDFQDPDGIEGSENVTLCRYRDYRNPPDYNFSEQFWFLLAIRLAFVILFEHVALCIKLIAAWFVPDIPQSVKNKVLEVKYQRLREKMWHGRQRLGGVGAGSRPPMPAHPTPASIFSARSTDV
UniProt Q9UNK9: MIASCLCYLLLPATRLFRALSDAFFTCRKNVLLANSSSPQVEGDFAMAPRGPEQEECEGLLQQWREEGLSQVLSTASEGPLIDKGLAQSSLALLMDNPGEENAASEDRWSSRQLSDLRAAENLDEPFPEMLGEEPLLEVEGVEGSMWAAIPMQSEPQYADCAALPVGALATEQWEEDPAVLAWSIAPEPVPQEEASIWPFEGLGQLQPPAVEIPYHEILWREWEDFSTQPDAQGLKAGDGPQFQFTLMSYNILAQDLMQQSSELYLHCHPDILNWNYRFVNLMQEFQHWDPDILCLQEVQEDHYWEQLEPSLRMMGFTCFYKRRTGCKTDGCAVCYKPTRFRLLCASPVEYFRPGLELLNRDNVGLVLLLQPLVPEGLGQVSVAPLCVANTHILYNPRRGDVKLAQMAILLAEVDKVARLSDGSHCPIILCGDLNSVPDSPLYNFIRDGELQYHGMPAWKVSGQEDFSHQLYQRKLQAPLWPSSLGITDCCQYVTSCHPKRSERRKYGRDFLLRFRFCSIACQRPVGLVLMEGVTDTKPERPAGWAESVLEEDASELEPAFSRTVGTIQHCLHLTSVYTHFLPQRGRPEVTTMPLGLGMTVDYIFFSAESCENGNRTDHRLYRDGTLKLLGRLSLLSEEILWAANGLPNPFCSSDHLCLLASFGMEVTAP
UniProt P51648: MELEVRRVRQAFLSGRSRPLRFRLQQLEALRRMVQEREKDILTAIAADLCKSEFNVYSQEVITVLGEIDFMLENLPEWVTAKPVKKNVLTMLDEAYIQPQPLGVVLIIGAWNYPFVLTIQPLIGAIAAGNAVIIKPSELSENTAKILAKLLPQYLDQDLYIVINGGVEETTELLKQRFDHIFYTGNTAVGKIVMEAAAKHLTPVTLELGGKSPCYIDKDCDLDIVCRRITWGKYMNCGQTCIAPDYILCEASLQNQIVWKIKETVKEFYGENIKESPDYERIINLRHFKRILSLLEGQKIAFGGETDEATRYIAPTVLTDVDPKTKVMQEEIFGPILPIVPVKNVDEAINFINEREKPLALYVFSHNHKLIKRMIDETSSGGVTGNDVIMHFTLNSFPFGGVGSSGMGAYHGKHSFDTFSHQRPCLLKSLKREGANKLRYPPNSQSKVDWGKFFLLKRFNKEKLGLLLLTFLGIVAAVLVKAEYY
UniProt Q3KRA9: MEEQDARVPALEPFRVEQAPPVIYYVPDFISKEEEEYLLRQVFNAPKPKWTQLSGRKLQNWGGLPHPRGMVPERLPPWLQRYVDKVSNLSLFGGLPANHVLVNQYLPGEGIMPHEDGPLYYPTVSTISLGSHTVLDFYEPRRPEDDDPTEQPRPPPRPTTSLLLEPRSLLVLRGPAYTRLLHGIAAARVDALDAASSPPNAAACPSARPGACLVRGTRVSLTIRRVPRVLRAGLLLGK
UniProt P09917: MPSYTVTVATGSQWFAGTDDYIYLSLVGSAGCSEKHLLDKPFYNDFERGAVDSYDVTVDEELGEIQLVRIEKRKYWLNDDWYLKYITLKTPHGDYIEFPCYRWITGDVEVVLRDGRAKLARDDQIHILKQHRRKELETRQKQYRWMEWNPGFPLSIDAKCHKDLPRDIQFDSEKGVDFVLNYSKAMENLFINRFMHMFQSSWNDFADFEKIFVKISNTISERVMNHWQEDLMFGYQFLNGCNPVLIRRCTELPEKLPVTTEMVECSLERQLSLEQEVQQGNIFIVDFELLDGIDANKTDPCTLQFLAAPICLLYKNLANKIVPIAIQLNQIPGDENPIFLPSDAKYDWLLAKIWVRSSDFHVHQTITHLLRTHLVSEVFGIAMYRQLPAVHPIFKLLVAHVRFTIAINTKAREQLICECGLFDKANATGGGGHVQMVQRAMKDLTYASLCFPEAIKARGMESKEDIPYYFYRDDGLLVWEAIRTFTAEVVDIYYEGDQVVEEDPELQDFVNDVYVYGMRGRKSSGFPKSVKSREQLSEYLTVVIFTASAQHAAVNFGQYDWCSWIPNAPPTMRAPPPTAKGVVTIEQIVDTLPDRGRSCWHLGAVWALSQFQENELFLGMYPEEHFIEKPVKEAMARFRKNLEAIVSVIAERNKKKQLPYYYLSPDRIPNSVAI
UniProt Q68DC2: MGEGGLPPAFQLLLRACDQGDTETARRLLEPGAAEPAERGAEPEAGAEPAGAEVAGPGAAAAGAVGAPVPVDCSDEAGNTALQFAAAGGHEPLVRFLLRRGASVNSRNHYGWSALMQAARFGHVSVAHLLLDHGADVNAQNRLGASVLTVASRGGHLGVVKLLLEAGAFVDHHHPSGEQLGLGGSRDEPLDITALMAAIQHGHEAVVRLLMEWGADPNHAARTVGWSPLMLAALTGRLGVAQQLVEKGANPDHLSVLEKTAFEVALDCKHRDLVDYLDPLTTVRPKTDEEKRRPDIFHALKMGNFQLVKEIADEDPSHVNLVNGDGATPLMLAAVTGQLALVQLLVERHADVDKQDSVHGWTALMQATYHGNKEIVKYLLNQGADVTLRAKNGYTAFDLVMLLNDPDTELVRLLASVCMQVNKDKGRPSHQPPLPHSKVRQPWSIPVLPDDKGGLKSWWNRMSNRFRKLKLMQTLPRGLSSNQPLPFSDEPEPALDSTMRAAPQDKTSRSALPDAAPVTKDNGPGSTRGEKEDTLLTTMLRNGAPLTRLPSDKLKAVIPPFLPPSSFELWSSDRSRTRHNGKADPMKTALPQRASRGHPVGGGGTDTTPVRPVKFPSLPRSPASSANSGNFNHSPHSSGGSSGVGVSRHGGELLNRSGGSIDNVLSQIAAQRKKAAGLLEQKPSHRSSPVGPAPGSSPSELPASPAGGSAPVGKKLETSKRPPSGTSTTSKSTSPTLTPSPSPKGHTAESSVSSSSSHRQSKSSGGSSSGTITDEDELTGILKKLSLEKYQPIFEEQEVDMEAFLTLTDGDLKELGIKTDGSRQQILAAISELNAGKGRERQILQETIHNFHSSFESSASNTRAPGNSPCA
UniProt Q9BS18, whole entry, looked up: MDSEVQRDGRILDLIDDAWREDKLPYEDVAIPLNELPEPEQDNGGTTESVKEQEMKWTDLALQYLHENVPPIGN

Columns and labels:
Experiment in all cases: log2 fold change, soluble protein after heating vs DMSO (PISA); higher = thermal stabilisation; K562 lysate, 10 uM; active = over 0.2 and 3.5 SD of the protein, either way, in both replicates (recomputed)
crizotinib = compound: C[C@@H](Oc1cc(-c2cnn(C3CCNCC3)c2)cnc1N)c1c(Cl)ccc(F)c1Cl [crizotinib]
Procedure, shortened: (§1)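 Values give the log-two fold change in thermal stability against solvent controls, from duplicates. Crude K562 extract at 1 mg/mL protein, made by dounce homogenisation in PBS pH 7.4 with 1 mM MgCl2, was treated with 10 μM compound for 30 min. After 3 min heating across 48°C-58°C, aliquots were pooled, adjusted to 0.5% NP-40 at 4°C and centrifuged at 21,000xg for 90 min. The supernatant was measured by TMTpro 16plex LC-MS/MS with channel sums equalised.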

[1] = compound: C[C@H](C1=CC=C(C=C1)C(=O)NC2=C3C=CNC3=NC=C2)N
Procedure, shortened: as §1

duvelisib = compound: C[C@H](Nc1ncnc2nc[nH]c12)c1cc2cccc(Cl)c2c(=O)n1-c1ccccc1 [duvelisib]
Procedure, shortened: as §1

gandotinib = compound: Cc1cc(Nc2cc(CN3CCOCC3)c3nc(C)c(Cc4ccc(Cl)cc4F)n3n2)n[nH]1 [gandotinib]
Procedure, shortened: as §1

tozasertib = compound: Cc1cc(Nc2cc(N3CCN(C)CC3)nc(Sc3ccc(NC(=O)C4CC4)cc3)n2)n[nH]1 [tozasertib]
Procedure, shortened: as §1

doramapimod = compound: Cc1ccc(-n2nc(C(C)(C)C)cc2NC(=O)Nc2ccc(OCCN3CCOCC3)c3ccccc23)cc1 [doramapimod]
Procedure, shortened: as §1

[2] = compound: Cc1cccc(CC(=O)N2CCc3c2ccc(-c2cn(C)c4ncnc(N)c24)c3F)n1
Procedure, shortened: as §1

nilotinib = compound: Cc1cn(-c2cc(NC(=O)c3ccc(C)c(Nc4nccc(-c5cccnc5)n4)c3)cc(C(F)(F)F)c2)cn1 [nilotinib]
Procedure, shortened: as §1

[3] = compound: Cc1nc(Nc2n[nH]c3c2CN(C(=O)N[C@H](CN(C)C)c2ccccc2)C3(C)C)c2sccc2n1
Procedure, shortened: as §1

dasatinib = compound: Cc1nc(Nc2ncc(C(=O)Nc3c(C)cccc3Cl)s2)cc(N2CCN(CCO)CC2)n1 [dasatinib]
Procedure, shortened: as §1

[4] = compound: Cc1ncc(-c2ccnc(Nc3ccc(S(C)(=O)=O)cc3)n2)n1C(C)C
Procedure, shortened: as §1

[5] = compound: Cn1cc(-c2ccc3c(c2)CCN3C(=O)Cc2cccc(C(F)(F)F)c2)c2c(N)ncnc21
Procedure, shortened: as §1

quisinostat = compound: Cn1cc(CNCC2CCN(c3ncc(C(=O)NO)cn3)CC2)c2ccccc21 [quisinostat]
Procedure, shortened: as §1

tipifarnib = compound: Cn1cncc1[C@@](N)(c1ccc(Cl)cc1)c1ccc2c(c1)c(-c1cccc(Cl)c1)cc(=O)n2C [tipifarnib]
Procedure, shortened: as §1

[6] = compound: NC(=O)Nc1cc(-c2cccc(F)c2)sc1C(=O)N[C@H]1CCCNC1
Procedure, shortened: as §1

[7] = compound: NC1(c2ccc(-c3nc4ccn5c(=O)[nH]nc5c4cc3-c3ccccc3)cc2)CCC1
Procedure, shortened: as §1

pictilisib = compound: CS(=O)(=O)N1CCN(Cc2cc3nc(-c4cccc5[nH]ncc45)nc(N4CCOCC4)c3s2)CC1 [pictilisib]
Procedure, shortened: as §1

bafetinib = compound: Cc1ccc(NC(=O)c2ccc(CN3CC[C@H](N(C)C)C3)c(C(F)(F)F)c2)cc1Nc1nccc(-c2cncnc2)n1 [bafetinib]
Procedure, shortened: as §1

Target	log2 fold change (crizotinib)	log2 fold change [1]	log2 fold change (duvelisib)	log2 fold change (gandotinib)	log2 fold change (tozasertib)	log2 fold change (doramapimod)	log2 fold change [2]	log2 fold change (nilotinib)	log2 fold change [3]	log2 fold change (dasatinib)	log2 fold change [4]	log2 fold change [5]	log2 fold change (quisinostat)	log2 fold change (tipifarnib)	log2 fold change [6]	log2 fold change [7]	log2 fold change (pictilisib)	log2 fold change (bafetinib)
AMFR (UniProt Q9UKV5)	inactive: -0.075	inactive: 0.19	inactive: -0.026	inactive: -0.059	inactive: -0.056	inactive: 0.028	inactive: 0.08	inactive: -0.068	inactive: -0.229	inactive: -0.154	inactive: 0.132	inactive: 0.014	inactive: -0.026	inactive: -0.101	inactive: 0.044	inactive: -0.164		
AMIGO2 (UniProt Q86SJ2)		inactive: 0.002		inactive: 0.104			inactive: 0.266	inactive: 0.04	inactive: -0.024		inactive: 0.002			inactive: -0.187				
ALG11 (UniProt Q2TAA5)	inactive: 0.066	inactive: 0.04	inactive: 0.083	inactive: 0.133		inactive: 0.036	inactive: -0.01	inactive: -0.08	inactive: 0.033	inactive: 0.001	inactive: -0.094	inactive: -0.054	inactive: 0.2	inactive: -0.196	inactive: -0.026	inactive: 0.158	inactive: 0.157	inactive: -0.113
AP1B1 isoform 3 (UniProt Q10567)	inactive: -0.09					inactive: 0.409							inactive: -0.033		inactive: -0.012		inactive: -0.203	inactive: 0.279
ANO9 (UniProt A1A5B4)			inactive: -0.001							inactive: -0.166		inactive: 0.027						
ANGEL1 (UniProt Q9UNK9)	inactive: -0.01	inactive: 0.053		inactive: 0.075		inactive: -0.113	inactive: -0.159	inactive: 0.097	inactive: 0.051		inactive: 0.027		inactive: -0.12	inactive: 0.036	inactive: -0.117			
ALDH3A2 isoform 2 (UniProt P51648)		inactive: -0.38	inactive: -0.423	inactive: 0.04			inactive: 0.218	inactive: -0.263	inactive: -0.033	inactive: 0.839	inactive: 0.122	inactive: -0.647		inactive: 0.003				
AMOT (UniProt Q4VCS5)	inactive: -0.025		inactive: -0.047		inactive: -0.029	inactive: 0.022		inactive: 0.056	inactive: -0.027	inactive: -0.06	inactive: 0.045	inactive: 0.176	inactive: -0.004	inactive: 0	inactive: -0.015			
ALKBH6 isoform 2 (UniProt Q3KRA9)	inactive: -0.036	inactive: 0.077	inactive: 0.02	inactive: -0.05	inactive: 0.006	inactive: 0.175	inactive: -0.006	inactive: -0.015	inactive: -0.096	inactive: -0.102	inactive: 0.012	inactive: 0.016	inactive: 0.04	inactive: 0.068	inactive: -0.126	inactive: 0.055		
ANP32E isoform 3 (UniProt Q9BTT0)		active: -0.843		inactive: 0.213	inactive: 0.165		inactive: 0.439										inactive: -0.012	inactive: -0.14
ALOX5 (UniProt P09917)		inactive: -0.136		inactive: 0.1			inactive: 0.246											
ANKS6 isoform 4 (UniProt Q68DC2)	inactive: 0.055		inactive: 0.065		inactive: 0.016	inactive: 0.002		inactive: -0.202	inactive: -0.057	inactive: 0.025	inactive: 0.083	inactive: -0.006	inactive: 0.015	inactive: -0.161	inactive: -0.063	inactive: -0.165		
ANAPC13 (UniProt Q9BS18)					inactive: -0.005													
ALOX12B (UniProt O75342)	inactive: 0.148	inactive: -0.102		inactive: 0.118		inactive: -0.178	inactive: -0.092	inactive: 0.088	inactive: -0.186		inactive: -0.136		inactive: 0.158	inactive: -0.018	inactive: 0.047	inactive: -0.071	inactive: 0.017	inactive: -0.093
ANKRD11 (UniProt Q6UB99)	inactive: -0.122	inactive: 0.103	inactive: 0.11	inactive: -0.07	inactive: -0.048	inactive: 0.157	inactive: 0.314			inactive: 0.063		inactive: -0.004	inactive: 0.009		inactive: 0.039	inactive: -0.096		
